According to article PMC4662854, “Structure and function of the N‐terminal domain of the human mitochondrial calcium uniporter” (EMBO Reports, 2015):
Results are given in words; binding and its absence hold for the method and conditions named. In cells and extracts the contact can be indirect. Some results given as binding are weak or reduced against the parent protein; the word gives no strength. Tags and fused reporters may be left off the sequences shown. Values belong to the molecule of their own block, whether it stands above or below them.

Sequences of proteins named here, by UniProt entry; tags and fusion partners are left off. A change or cut given only in a name is not applied to a line headed by its entry. Residues count along the entry.
UniProt Q8NE86, residues 75-165: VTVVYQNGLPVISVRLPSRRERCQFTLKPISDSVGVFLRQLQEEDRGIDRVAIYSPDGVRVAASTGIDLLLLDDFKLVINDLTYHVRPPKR

Assays:
[1] = molecular target: T1, GST-MCUR1_(138–338) (UniProt Q96AQ8); assay: pull-down; in vitro; GST-tagged bait immobilized on GST affinity resin, His-tagged prey flowed through the resin; Western blot after SDS-PAGE
T1 sequence: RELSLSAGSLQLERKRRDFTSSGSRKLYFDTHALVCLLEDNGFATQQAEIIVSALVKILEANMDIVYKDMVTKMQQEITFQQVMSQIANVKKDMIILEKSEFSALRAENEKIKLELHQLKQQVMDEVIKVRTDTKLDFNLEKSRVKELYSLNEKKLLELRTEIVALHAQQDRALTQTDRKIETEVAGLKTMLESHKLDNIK

[2] = molecular target: GST-MCU NTD (MCU residues 75-165) (human) (UniProt Q8NE86); assay: as above

binding [1]: binds
Molecule: His-MCU NTD (MCU residues 75-165) (from UniProt Q8NE86-1 75-165) (domain or fragment)

binding [2]: binds
B1: His-MBP-MCUR1_(138–338) (domain or fragment, UniProt Q96AQ8 138-338)
chain: T1 sequence
